The results in this text go back to the supplement of paper PMC4604168 (melanoma cell lines).

The other results are listed elsewhere or left out. Single values are uncertain, as repeats are few or missing.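 The apoptosis fraction was the count of cleaved-PARP antibody-stained nuclei relative to all DNA-stained nuclei, imaged in 1,536-well plates. Screening doses were set so most cells survived, and baseline and induced cleaved-PARP levels vary greatly across cell lines.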

For one test, the system named is LB2518-MEL. The test can be described thus: cleaved PARP positive nuclei fraction relative to DMSO control; melanoma cells; higher = more apoptosis. The conditions noted are these: library dose: low library concentration; 72 h.
With `Cn1cc(C2=C(c3cn(C4CCN(Cc5ccccn5)CC4)c4ccccc34)C(=O)NC2=O)c2ccccc21` [Enzastaurin] + Cc1cc(Nc2cc(N3CCN(C)CC3)nc(/C=C/c3ccccc3)n2)n[nH]1 [ENMD2076] (first compound 0.8 µM, partner dose 0.04 µM), the “cleaved PARP positive nuclei fraction” value came out at 224%.

Take `Cc1cc(Nc2cc(N3CCN(C)CC3)nc(Sc3ccc(NC(=O)C4CC4)cc3)n2)n[nH]1` [Tozasertib] + N.N.[Cl][Pt][Cl] [cisplatin] (first compound 0.006 µM, partner dose 1.6 µM): the “cleaved PARP positive nuclei fraction” value was 114%.

Consider `N.N.[Cl][Pt][Cl]` [cisplatin] + Clc1ccc(Nc2nnc(Cc3ccncc3)c3ccccc23)cc1 [vatalanib] (first compound 1.6 µM, partner dose 2 µM), for which the “cleaved PARP positive nuclei fraction” value worked out at 94.3%.

For the compound `COc1cc([C@@H]2c3cc4c(cc3[C@@H](O[C@@H]3O[C@@H]5CO[C@@H](C)O[C@H]5[C@H](O)[C@H]3O)[C@H]3COC(=O)[C@H]23)OCO4)cc(OC)c1O` [etoposide] + N.N.[Cl][Pt][Cl] [cisplatin] (first compound 0.02 µM, partner dose 1.6 µM), the “cleaved PARP positive nuclei fraction” value was 210%.

For `NC(=O)c1ccc(N(C(N)=O)c2c(F)cccc2F)nc1-c1ccc(F)cc1F` + O=C(Oc1ccc([N+](=O)[O-])cc1)N1CCC(C(O)(c2ccc3c(c2)OCO3)c2ccc3c(c2)OCO3)CC1 [JZL184] (first compound 0.4 µM, partner dose 1 µM), the “cleaved PARP positive nuclei fraction” value is 152%.

As to `C[C@]12O[C@H](C[C@]1(O)CO)n1c3ccccc3c3c4c(c5c6ccccc6n2c5c31)CNC4=O` [Lestaurtinib] + COc1ccc(COc2ccc(Cc3cnc(N)nc3N)cc2OC)cc1 [GW2580] (first compound 0.004 µM, partner dose 1 µM), the “cleaved PARP positive nuclei fraction” value is 74.3%.

In the case of `COc1cc([C@@H]2c3cc4c(cc3[C@@H](O[C@@H]3O[C@@H]5CO[C@@H](C)O[C@H]5[C@H](O)[C@H]3O)[C@H]3COC(=O)[C@H]23)OCO4)cc(OC)c1O` [etoposide] + C[As](C)SC[C@H](NC(=O)CC[C@H](N)C(=O)O)C(=O)NCC(=O)O [Darinaparsin] (first compound 0.02 µM, partner dose 0.4 µM), the “cleaved PARP positive nuclei fraction” value was found to be 49.5%.

In the case of `N.N.[Cl][Pt][Cl]` [cisplatin] + Oc1cc(-c2nc(-c3ccccc3)[nH]c2-c2ccncc2)ccc1Cl [L779450] (first compound 1.6 µM, partner dose 0.2 µM), the “cleaved PARP positive nuclei fraction” value worked out at 1130%.

As to `CC(=O)O[C@@]12CO[C@@H]1C[C@H](O)[C@@]1(C)C(=O)[C@H](O)C3=C(C)[C@@H](OC(=O)[C@H](O)[C@@H](NC(=O)OC(C)(C)C)c4ccccc4)C[C@@](O)([C@@H](OC(=O)c4ccccc4)[C@H]21)C3(C)C` [Docetaxel] + C/C(O)=C(\C#N)C(=O)Nc1cc(Br)ccc1Br [LFM-A13] (first compound 0.0001 µM, partner dose 2 µM), the “cleaved PARP positive nuclei fraction” value worked out at 103%.

As for `C[C@]12O[C@H](C[C@]1(O)CO)n1c3ccccc3c3c4c(c5c6ccccc6n2c5c31)CNC4=O` [Lestaurtinib] + CCc1ccc(CCOc2ccc(CC3SC(=O)NC3=O)cc2)nc1 [pioglitazone] (first compound 0.004 µM, partner dose 2 µM), the “cleaved PARP positive nuclei fraction” value stood at 82.1%.

Regarding `O=C(/C=C/c1cccnc1)NCCCCC1CCN(C(=O)c2ccccc2)CC1` + C[As](C)SC[C@H](NC(=O)CC[C@H](N)C(=O)O)C(=O)NCC(=O)O [Darinaparsin] (first compound 0.01 µM, partner dose 0.4 µM), the “cleaved PARP positive nuclei fraction” value worked out at 266%.

As to `COc1ccc(C2=N[C@@H](c3ccc(Cl)cc3)[C@@H](c3ccc(Cl)cc3)N2C(=O)N2CCNC(=O)C2)c(OC(C)C)c1` [Nutlin-3] + O=C(Oc1ccc([N+](=O)[O-])cc1)N1CCC(C(O)(c2ccc3c(c2)OCO3)c2ccc3c(c2)OCO3)CC1 [JZL184] (first compound 0.1 µM, partner dose 1 µM), the “cleaved PARP positive nuclei fraction” value stood at 70.4%.

Another test relates to LOXIMVI. The test is described as above. The conditions noted are these: library dose: low library concentration; 72 h.
Consider `C[C@@H]1CCN(C(=O)CC#N)C[C@@H]1N(C)c1ncnc2[nH]ccc12` + O=C(Oc1ccc([N+](=O)[O-])cc1)N1CCC(C(O)(c2ccc3c(c2)OCO3)c2ccc3c(c2)OCO3)CC1 [JZL184] (first compound 1 µM, partner dose 1 µM), for which the “cleaved PARP positive nuclei fraction” value worked out at 69.4%.

Consider `C[As](C)SC[C@H](NC(=O)CC[C@H](N)C(=O)O)C(=O)NCC(=O)O` [Darinaparsin] + C/C(O)=C(\C#N)C(=O)Nc1cc(Br)ccc1Br [LFM-A13] (first compound 0.4 µM, partner dose 2 µM), for which the “cleaved PARP positive nuclei fraction” value was 143%.

For the compound `Cn1c(=O)n(-c2ccc(C(C)(C)C#N)cc2)c2c3cc(-c4cnc5ccccc5c4)ccc3ncc21` + N.N.[Cl][Pt][Cl] [cisplatin] (first compound 0.004 µM, partner dose 1.6 µM), the “cleaved PARP positive nuclei fraction” value is 115%.

Take `CC(=O)O[C@@]12CO[C@@H]1C[C@H](O)[C@@]1(C)C(=O)[C@H](O)C3=C(C)[C@@H](OC(=O)[C@H](O)[C@@H](NC(=O)OC(C)(C)C)c4ccccc4)C[C@@](O)([C@@H](OC(=O)c4ccccc4)[C@H]21)C3(C)C` [Docetaxel] + C[As](C)SC[C@H](NC(=O)CC[C@H](N)C(=O)O)C(=O)NCC(=O)O [Darinaparsin] (first compound 0.0001 µM, partner dose 0.4 µM): the “cleaved PARP positive nuclei fraction” value worked out at 121%.

In the case of `C[C@]12O[C@H](C[C@]1(O)CO)n1c3ccccc3c3c4c(c5c6ccccc6n2c5c31)CNC4=O` [Lestaurtinib] + Cn1c(Nc2ccc(C(F)(F)F)cc2)nc2cc(Oc3ccnc(-c4ncc(C(F)(F)F)[nH]4)c3)ccc21 [CHIR265] (first compound 0.004 µM, partner dose 0.08 µM), the “cleaved PARP positive nuclei fraction” value came out at 137%.

Turning to `Cn1cc(C2=C(c3cn(C4CCN(Cc5ccccn5)CC4)c4ccccc34)C(=O)NC2=O)c2ccccc21` [Enzastaurin] + Cc1cc(Nc2cc(N3CCN(C)CC3)nc(/C=C/c3ccccc3)n2)n[nH]1 [ENMD2076] (first compound 0.8 µM, partner dose 0.04 µM), the “cleaved PARP positive nuclei fraction” value was found to be 122%.

As to `Cc1cc(Nc2cc(N3CCN(C)CC3)nc(Sc3ccc(NC(=O)C4CC4)cc3)n2)n[nH]1` [Tozasertib] + N.N.[Cl][Pt][Cl] [cisplatin] (first compound 0.006 µM, partner dose 1.6 µM), the “cleaved PARP positive nuclei fraction” value amounted to 281%.

As to `C[C@]12O[C@H](C[C@]1(O)CO)n1c3ccccc3c3c4c(c5c6ccccc6n2c5c31)CNC4=O` [Lestaurtinib] + C[C@@H](Oc1cc(-c2cnn(C3CCNCC3)c2)cnc1N)c1c(Cl)ccc(F)c1Cl [Crizotinib] (first compound 0.004 µM, partner dose 0.2 µM), the “cleaved PARP positive nuclei fraction” value is 214%.

`N.N.[Cl][Pt][Cl]` [cisplatin] + Clc1ccc(Nc2nnc(Cc3ccncc3)c3ccccc23)cc1 [vatalanib] (first compound 1.6 µM, partner dose 2 µM): the “cleaved PARP positive nuclei fraction” value worked out at 194%.

On to `O=c1[nH]nc(Sc2ncc([N+](=O)[O-])s2)n1-c1ccc2c(c1)OCCO2` + C[C@]12O[C@H](C[C@]1(O)CO)n1c3ccccc3c3c4c(c5c6ccccc6n2c5c31)CNC4=O [Lestaurtinib] (first compound 0.2 µM, partner dose 0.004 µM), for which the “cleaved PARP positive nuclei fraction” value is 143%.

In the case of `COc1cc([C@@H]2c3cc4c(cc3[C@@H](O[C@@H]3O[C@@H]5CO[C@@H](C)O[C@H]5[C@H](O)[C@H]3O)[C@H]3COC(=O)[C@H]23)OCO4)cc(OC)c1O` [etoposide] + N.N.[Cl][Pt][Cl] [cisplatin] (first compound 0.02 µM, partner dose 1.6 µM), the “cleaved PARP positive nuclei fraction” value came to 163%.

On to `C[C@]12O[C@H](C[C@]1(O)CO)n1c3ccccc3c3c4c(c5c6ccccc6n2c5c31)CNC4=O` [Lestaurtinib] + C[As](C)SC[C@H](NC(=O)CC[C@H](N)C(=O)O)C(=O)NCC(=O)O [Darinaparsin] (first compound 0.004 µM, partner dose 0.4 µM), for which the “cleaved PARP positive nuclei fraction” value worked out at 196%.

With `COc1ccc(COc2ccc(Cc3cnc(N)nc3N)cc2OC)cc1` + O=C(Oc1ccc([N+](=O)[O-])cc1)N1CCC(C(O)(c2ccc3c(c2)OCO3)c2ccc3c(c2)OCO3)CC1 [JZL184] (first compound 1 µM, partner dose 1 µM), the “cleaved PARP positive nuclei fraction” value came to 60.2%.

In the case of `Cn1cc(C2=C(c3cn(C4CCN(Cc5ccccn5)CC4)c4ccccc34)C(=O)NC2=O)c2ccccc21` [Enzastaurin] + NC1(c2ccc(-c3nc4ccn5c(=O)[nH]nc5c4cc3-c3ccccc3)cc2)CCC1 [MK2206] (first compound 0.8 µM, partner dose 0.4 µM), the “cleaved PARP positive nuclei fraction” value was 306%.

`NC(=O)c1ccc(N(C(N)=O)c2c(F)cccc2F)nc1-c1ccc(F)cc1F` + O=C(Oc1ccc([N+](=O)[O-])cc1)N1CCC(C(O)(c2ccc3c(c2)OCO3)c2ccc3c(c2)OCO3)CC1 [JZL184] (first compound 0.4 µM, partner dose 1 µM): the “cleaved PARP positive nuclei fraction” value was determined as 37.7%.

Turning to `C[C@]12O[C@H](C[C@]1(O)CO)n1c3ccccc3c3c4c(c5c6ccccc6n2c5c31)CNC4=O` [Lestaurtinib] + COc1ccc(COc2ccc(Cc3cnc(N)nc3N)cc2OC)cc1 [GW2580] (first compound 0.004 µM, partner dose 1 µM), the “cleaved PARP positive nuclei fraction” value came to 94%.

Turning to `Cn1cc(C2=C(c3cn(C4CCN(Cc5ccccn5)CC4)c4ccccc34)C(=O)NC2=O)c2ccccc21` [Enzastaurin] + N.N.[Cl][Pt][Cl] [cisplatin] (first compound 0.8 µM, partner dose 1.6 µM), the “cleaved PARP positive nuclei fraction” value was found to be 38.2%.
